Source: patent publication US20140127235A1, “TARGETING HK alpha FOR CONTROLLING BLOOD PRESSURE AND REGULATING ELECTROLYTE BALANCE” (UNIVERSITY OF FLORIDA RESEARCH FOUNDATION, INC., priority 2011, published 2014)

Test system: H^+,K^+-ATPase
Assay: H+,K+-ATPase-mediated H+ secretion (JH) in intercalated cells of microperfused inner cortical collecting ducts from DOCP-treated mice (BCECF-AM)
Type: in vivo, mouse
Settings: for Cl− Removal (change in pH) / Cl− Return (change in pH) / βi, buffering capacity: inner CCD of DOCP-treated mice
Method: One likely mechanism for mineralocorticoid-induced changes in acid-base homeostasis was stimulation of renal H^+,K^+-ATPase activity in response to mineralocorticoid-induced K^+ deficits. Therefore, H^+,K^+-ATPase activity was assessed in inner cortical collecting ducts from control and DOCP-treated mice. Individual intercalated cells from microperfused collecting ducts were loaded with the pH sensitive fluorescent dye, BCECF-AM. The addition of inhibitors of the Na^+/H^+ exchanger and the H^+-ATPase allowed for the measurement of H^+,K^+-ATPase-mediated H^+ secretion (JH) in response to an acute intracellular acid load (NH4Cl). The overall rate of H^+,K^+-ATPase-mediated JH in intercalated cells from control mice was quite slow (˜15H^+/min) (FIG. 1).
Additional experiments were conducted to identify which intercalated cell subtype was responsible for the DOCP-induced increase in H^+,K^+-ATPase mediated JH. Again, the rate of H^+,K^+-ATPase-mediated JH was measured in intercalated cells of inner cortical collecting ducts from control and DOCP-treated mice. At the end of the experiment, A- and B-type ICs were differentiated by peritubular Cl^− removal and return as has been described previously^12,13 The characteristic inverse responses of A- and B-type intercalated cells to Cl^− removal and return were observed (Table 2). […] There was no difference in the rate of H^+,K^+-ATPase mediated JH in A- and B-type intercalated cells from control mice (FIG. 2).
Inner cortical collecting ducts were hand dissected at 4° C., transferred to a mounting chamber and perfused as described previously.^25 The ratiometric, pH sensitive dye, BCECF-AM (15 μM, Invitrogen) was added to the luminal perfusate for 10 minutes and fluorescence measurements were performed after dye de-esterification. Tubules were equilibrated with 100 nM bafilomycin A1 in the luminal perfusate and 10 μM EIPA in the peritubular solution for 20 minutes and inhibitors were present throughout the remainder of the experiment. Cells were acid loaded by a 3 minute, peritubular exposure to 40 mM NH4Cl followed by NH4Cl removal. Ratiometric intensity measurements 490/440) were made in individual, well defined ICs and converted to pH, using linear regression, based on a high K^+/nigericin calibration curve. Recovery rates were calculated from the linear portion of the pH, recovery phase starting with the lowest pH, achieved. The intrinsic buffering capacity was calculated from the formula βi=ΔHi/ΔpHi where ΔHi is the change in the calculated [NH4]i and ΔpHi the change in pHi during the acid loaded phase. Acid secretion rates (JH) were calculated from the formula JH=βi*ΔpH, (U/min) and expressed as [H^+]/min. A- and B-type ICs were differentiated using peritubular chloride removal and return in HCO3^− containing solutions as described previously.^25-27

CC(C)(C)C(=O)OCC(=O)[C@H]1CC[C@H]2[C@@H]3CCC4=CC(=O)CC[C@]4(C)[C@H]3CC[C@]12C [DOCP, desoxycorticosterone pivalate]
Cl− Removal (change in pH) (A-type IC): 0.59 ± 0.04 U/min | Cl− Return (change in pH) (A-type IC): −0.37 ± 0.06 U/min | βi, buffering capacity (A-type IC): 86.8 ± 16.6 U/min | Cl− Removal (change in pH) (B-type IC): −0.35 ± 0.03 U/min | Cl− Return (change in pH) (B-type IC): 0.37 ± 0.03 U/min | βi, buffering capacity (B-type IC): 87.7 ± 9.02 U/min | effect on intrinsic buffering capacity (βi) (intercalated cells, DOCP treatment): not significantly affected
